In PubChem BioAssay AID2685 (National Center for Advancing Translational Sciences (NCATS), 2010) one finds cell number change and AC50 data, which are given here for 58 molecules.

The other results are listed elsewhere or left out. Shown are side measurements of this screen, not its main read-out; they come without a call. The list favours compounds with an active or inconclusive main result. Words in brackets tell the shape of the fitted curve; partial curves, single points and poor fits give uncertain potencies.

The experiment in a line: qHTS Assay for Lipid Storage Modulators in Drosophila S3 Cells.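 As to cell number change: cells counted by Cell Tracker Red CMTPX staining in the red channel.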 Conditions: BODIPY lipid droplet fluorescence, 18-24 h; for cell number change: measured here: cell count max response, cells fed with added oleic acid. The method, boiled down: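 Drosophila S3 cells loaded with oleic acid (400 uM, as added) and compounds at several concentrations; lipid droplets imaged by 488-nm laser-scanning cytometry, 500–530 nm intensity and object ratio to cell channel. Percent activity normalized to 20 uM Triacsin C.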
For orientation: In qHTS, concentration-response curves come from the screen itself.

Where [1] appears, read: measured here: cell number channel AC50, cells fed with added oleic acid.
Where [2] appears, read: measured here: lipid fluorescence (Fed channel) AC50, cells fed with added oleic acid.

On to `COC(=O)c1ccccc1NC(=S)NC(=O)CC(C)C`, for which the cell number change is -24.6%.

Consider `Oc1ccc(-c2nccc(-c3ccc(Cl)cc3Cl)n2)cc1`, for which the cell number change is -36.2%.

For orientation: AC50 means the concentration at which the activity in the assay is half-maximal. The low end stands for greater potency, the high end for weaker potency. As for `Cc1cc(C)nc(N/N=C/c2ccc3c(c2)OCCO3)n1`, the cell number change amounted to 109%. Besides, the AC50 under setting [1] is 0.651 µM [rising, single point].

Consider `Cc1ccc(CNC(=O)Cc2ccc(-n3cccc3)cc2)cc1`, for which the cell number change was -6.01%. Also, the AC50 under setting [2] was 0.651 µM [falling, single point].

As for `O=C(COC(=O)c1ccccc1-n1cnnn1)c1ccc(F)cc1`, the cell number change was -17.6%. For the same molecule, the AC50 under setting [2] was 0.326 µM [rising, partial curve, poor fit].

As to `O=C(CC(=O)NC1CCCCC1)N/N=C/c1ccccc1Cl`, the cell number change is -34.5%. For the same molecule, the AC50 under setting [1] was 18.4 µM [falling, single point]. Also, under setting [2], the AC50 was 25.9 µM [falling, single point].

With `CCC(=O)Nc1ccc(C(=O)CN2C(=O)NC3(CCOc4ccccc43)C2=O)cc1` (stereo unspecified), the cell number change turned out to be 9.14%. For the same molecule, under setting [2], the AC50 is 9.2 µM [rising, single point].

As to `O=C(Cn1nnc(-c2cccc(C(F)(F)F)c2)n1)NC(=O)NCc1ccco1`, the cell number change was -42.7%. Besides, the AC50 under setting [1] was 20.6 µM [falling, single point]. Further, the half-maximal activity concentration (AC50) under setting [2] is 18.4 µM [falling, single point].

`C/C=C\C(=O)Nc1cccc(C2=NOC3(C2)C[C@H](C(N)=O)N(C(=O)/C=C/CC)C3)c1` (stereo partly specified): the cell number change is -41.2%. Further, the AC50 under setting [1] was 29.1 µM [falling, single point]. Under setting [2], the AC50 is 25.9 µM [falling, partial curve].

In the case of `CC(Oc1ccc2c(-c3ccccc3)cc(=O)oc2c1)C(=O)NCC(O)c1ccccc1` (stereo unspecified), the cell number change is 27.1%. The AC50 under setting [2] is 29.1 µM [rising, single point].

As to `COc1cc(Cl)c(C)cc1NC(=O)CC1SC(N2CCOCC2)=NC1=O` (stereo unspecified), the cell number change is -46%. In addition, the half-maximal activity concentration (AC50) under setting [1] was 29.1 µM [falling, single point]. Moreover, the AC50 under setting [2] was 13 µM [rising, partial curve].

For `CCOC(=O)C1CCN(C(=O)Cn2cccc2C(=O)c2ccccc2)CC1`, under setting [2], the AC50 was 0.731 µM [falling, full curve].

For `Cc1nnc(SCC(=O)NCc2ccc3c(c2)OCO3)s1`, the cell number change was -116%. For the same molecule, the AC50 under setting [1] is 29.1 µM [falling, single point]. Moreover, the AC50 under setting [2] is 29.1 µM [falling, single point].

Regarding `CCOC(=O)C(NC(C)=O)(NC(C)C)C(F)(F)F` (stereo unspecified), the cell number change was -37.8%.

As for `O=c1c2ccccc2nc(/C=C/c2cccnc2)n1CCc1ccccc1`, the cell number change worked out at 17.3%. Besides, under setting [2], the AC50 was 5.8 µM [rising, partial curve].

For the molecule `CC(Sc1nnc2c(n1)C1(C)CCC2C1(C)C)C(=O)Nc1ccccc1` (stereo unspecified), the cell number change is -27.3%. Moreover, the AC50 under setting [2] was 0.461 µM [falling, single point].

As for `CCOCCCNC(=S)Nc1cc(C)cc(C)c1`, the cell number change was -20.5%. The AC50 under setting [1] is 0.291 µM [rising, full curve].

As for `COc1ccc(C(=O)CSc2n[nH]c(-c3ccncc3)n2)cc1[N+](=O)[O-]`, the cell number change was -57.7%. In addition, the AC50 under setting [1] was 29.1 µM [falling, single point]. For the same molecule, the concentration at half-maximal activity (AC50) under setting [2] was 18.4 µM [rising, single point].

As for `Cc1ccc(S(=O)(=O)c2c(N)n(NC(=O)c3ccco3)c3nc4ccccc4nc23)cc1`, the cell number change worked out at 0.166%. Besides, under setting [1], the AC50 was 1.46 µM [rising, partial curve, poor fit]. Also, the AC50 under setting [2] is 23.1 µM [rising, single point].

Regarding `CCN(CC)CCNC(=O)CNC(=O)c1nn(-c2ccc(OC)cc2)c(=O)c2ccccc12`, the cell number change is -8.03%. The AC50 under setting [2] was 0.00461 µM [falling, full curve, poor fit].

On to `COC(=O)c1sccc1NC(=O)COc1cccc(C)c1`, for which the cell number change worked out at 7.68%. Besides, the AC50 under setting [2] is 29.1 µM [rising, partial curve, poor fit].

On to `Cc1ccc(-n2nc3c(c2NC(=O)c2ccc4c(c2)OCO4)CS(=O)C3)c(C)c1` (stereo unspecified), for which the cell number change was determined as 30.3%. In addition, under setting [1], the AC50 was 13 µM [rising, single point].

`O=C(CC1NCCNC1=O)Nc1cccc([N+](=O)[O-])c1` (stereo unspecified): the cell number change was -17%. In addition, the AC50 under setting [1] is 0.366 µM [falling, full curve, poor fit]. In addition, the AC50 under setting [2] was 0.291 µM [falling, full curve, poor fit].

As to `COc1ccc(CCC(=O)Nc2cc(S(=O)(=O)N3CCCCC3)ccc2N(C)C)cc1`, the cell number change came to 14%.

Regarding `COc1ccc(OCc2cc(C(=O)NC(C)Cn3cncn3)no2)c(Cl)c1` (stereo unspecified), the cell number change came out at 13.2%. Besides, the AC50 under setting [2] is 0.13 µM [rising, single point].

For the molecule `O=C(CSc1nc2ccccc2[nH]1)N/N=C/C=C/c1ccccc1[N+](=O)[O-]`, the cell number change is 6.91%. Moreover, the AC50 under setting [1] was 0.461 µM [falling, full curve, poor fit]. Also, the AC50 under setting [2] was 7.31 µM [rising, partial curve].

Take `Cc1ccc(C(=O)/C=C\Nc2ccc(C)c(C)c2)cc1`: the cell number change is 7.44%. The AC50 under setting [2] was 2.31 µM [rising, full curve, poor fit].

As for `CCN1CCN(c2cc(C)c3cc(NC(=O)c4ccncc4)ccc3n2)CC1`, the cell number change was 49.6%. Also, the AC50 under setting [1] is 18.4 µM [rising, partial curve, poor fit]. Moreover, the AC50 under setting [2] is 32.6 µM [rising, partial curve, poor fit].

For the molecule `CCN(CC)CCCNC(=O)CC1Sc2ccccc2NC1=O` (stereo unspecified), the cell number change turned out to be 25.4%. Further, the AC50 under setting [2] is 29.1 µM [rising, single point].

Take `O=c1cnn(-c2ccc(Cl)cc2Cl)c(-c2ccccc2)c1`: the cell number change was 207%. Under setting [1], the AC50 is 2.91 µM [falling, partial curve]. Also, the half-maximal activity concentration (AC50) under setting [2] is 6.51 µM [falling, single point].

Turning to `C/C(=N\NC(=S)NCc1ccccc1)c1ccc(Cl)cc1`, under setting [2], the AC50 is 2.59 µM [rising, full curve, poor fit].

Take `CCc1ccccc1Nc1nc(N)nc(COC(=O)c2cccn2C)n1`: the cell number change was 32.5%. Further, under setting [1], the AC50 was 1.84 µM [rising, full curve, poor fit].

With `CCN(CC)S(=O)(=O)c1ccc(NC(=O)CNC2CCCCC2)cc1`, the cell number change is -33.3%. Further, the AC50 under setting [1] is 29.1 µM [falling, single point].

In the case of `CC(=O)N1CCC(=NNc2ccc(S(=O)(=O)N3CCOCC3)cc2[N+](=O)[O-])CC1`, the cell number change is -13.1%. The AC50 under setting [2] was 6.51 µM [falling, single point].

For the molecule `Cc1noc(NS(=O)(=O)c2ccc(NC(=O)C(C)(C)C)cc2)c1C`, the cell number change stood at 14.2%. Also, under setting [2], the AC50 is 29.1 µM [rising, single point].

Turning to `CCc1c(O)nc(SCC(=O)Nc2ccc(C)cc2)n(C2CCCCC2)c1=O`, the cell number change was found to be 99%. Further, the AC50 under setting [1] was 23.1 µM [rising, partial curve]. Further, under setting [2], the AC50 was 0.731 µM [falling, full curve].

Take `Cc1ccc(S(=O)(=O)NCC(=O)N/N=C/c2ccc(Cl)cc2)cc1`: the cell number change was -43.9%. For the same molecule, the AC50 under setting [1] was 29.1 µM [falling, single point]. Under setting [2], the half-maximal activity concentration (AC50) is 0.0058 µM [falling, full curve, poor fit].

In the case of `COCCCn1c(-c2ccc(Cl)cc2)n[nH]c1=S`, the cell number change was 1.02%. Also, the AC50 under setting [1] is 0.517 µM [falling, single point]. Also, the half-maximal activity concentration (AC50) under setting [2] is 0.116 µM [falling, full curve, poor fit].

`Cc1sc(NC(=O)CN(Cc2ccc(F)cc2)C(=O)C(C)C)c(C(N)=O)c1C`: the cell number change worked out at 23.5%. The AC50 under setting [2] was 25.9 µM [rising, single point].

Consider `CC(=O)c1c(C(C)=O)c(C)n(-c2nc(-c3ccc(Br)cc3)c(C)s2)c1C`, for which the cell number change is -17.1%. The AC50 under setting [1] was 0.731 µM [rising, single point]. In addition, under setting [2], the AC50 was 18.4 µM [rising, partial curve, poor fit].

For the molecule `O=C(NNC(=O)c1ccccc1[N+](=O)[O-])Nc1ccc(Cl)cc1`, the cell number change worked out at 21.4%. Further, under setting [2], the AC50 is 29.1 µM [rising, single point].

Take `Cc1ccc2nc(C)cc(OCC(=O)O)c2c1`: the cell number change was -0.369%.

Consider `O=C(NC1CCS(=O)(=O)C1)c1cnccn1` (stereo unspecified), for which the cell number change turned out to be 10.7%.

Regarding `Cc1cc(OC(=O)c2ccccc2F)c([N+](=O)[O-])c(=O)[nH]1`, the cell number change is -16.5%.

Regarding `Cc1ccc(S(=O)(=O)N2[C@@H](c3ccc(Cl)cc3)C(C(=O)O)=CC[C@H]2c2ccc(Cl)c(Cl)c2)cc1`, the cell number change is -22.1%.

In the case of `NS(=O)(=O)c1ccc(CNC(=O)/C=C/c2c(F)cccc2Cl)cc1`, the cell number change was -35.7%. Also, the AC50 under setting [1] is 11.6 µM [falling, partial curve].

As to `Cc1ccc(S(=O)(=O)N2CCN(C(=O)c3ccc4nc[nH]c4c3)CC2)cc1`, the cell number change was 28.5%.

On to `COc1ccccc1NC(=S)NC(=O)c1ccc(Cn2cc(Br)cn2)cc1`, for which the cell number change was found to be 24.4%. Further, under setting [2], the AC50 was 6.51 µM [rising, partial curve, poor fit].

Turning to `CCOc1ccc(N(CC(=O)NC2CCCCC2)C(=O)CCCC(=O)Nc2ccccn2)cc1`, the cell number change worked out at 13.9%. Further, under setting [2], the concentration at half-maximal activity (AC50) is 29.1 µM [falling, partial curve, poor fit].

For the molecule `O=C1C2C3C=CC(C2C(=O)N1C1CCCCC1)C1C(=O)N(C2CCCCC2)C(=O)C31` (stereo unspecified), the cell number change is 22.5%. In addition, under setting [2], the AC50 is 3.26 µM [rising, single point].

Consider `CCOC(=O)c1cnn(-c2ccccc2)c1-n1cccc1C(=O)C(=O)Nc1ccc(F)cc1`, for which the cell number change is -26.9%. Moreover, under setting [2], the AC50 is 5.8 µM [falling, partial curve].

For `C=CCNCC(=O)NN=C(c1ccccc1)c1ccccc1`, the AC50 under setting [2] was 29.1 µM [rising, single point].

Take `CC12CC3CC(C)(C1)CC(C(=O)NCc1ccco1)(C3)C2`: the cell number change is -17.1%.

As for `COc1ccccc1NC(=O)N1CCCC(C(=O)Nc2cccc(C)c2C)C1` (stereo unspecified), under setting [1], the AC50 was 6.51 µM [rising, single point].

Regarding `CCOC(=O)c1c(NC(=O)C2C3CCC(O3)C2C(=O)O)sc2c1CCC(CC)C2` (stereo unspecified), the cell number change is 31.6%. Besides, the AC50 under setting [1] was 32.6 µM [rising, single point].

Take `CC1CCN(C(=S)c2ccccc2O)CC1`: the AC50 under setting [2] is 0.231 µM [falling, full curve, poor fit].

For the molecule `Cc1ccc2c(COC(=O)c3ccc(NC(=O)CC#N)cc3)cc(=O)oc2c1C`, the cell number change amounted to 33.5%. Further, under setting [1], the AC50 was 7.31 µM [rising, partial curve].

Regarding `O=C(Nc1ccc2c(c1)CCC2)c1cc(F)cc(F)c1`, the cell number change was 2.71%. Moreover, under setting [2], the AC50 is 23.1 µM [falling, single point].
